Experimental data taken from patent US7361730B1, “Surface localized colligin/Hsp47 in carcinoma cells” (University of Maryland, priority 1999, dated 2008).
No constants are given. Whether binding was seen depends on the method and setting. In cells and extracts the contact can be indirect. Some results given as binding are weak or reduced against the parent protein; the word gives no strength.

By UniProt entry, the sequences of proteins in these tests, tags left out. Residues count along the entry.
UniProt P21926, residues 2-228: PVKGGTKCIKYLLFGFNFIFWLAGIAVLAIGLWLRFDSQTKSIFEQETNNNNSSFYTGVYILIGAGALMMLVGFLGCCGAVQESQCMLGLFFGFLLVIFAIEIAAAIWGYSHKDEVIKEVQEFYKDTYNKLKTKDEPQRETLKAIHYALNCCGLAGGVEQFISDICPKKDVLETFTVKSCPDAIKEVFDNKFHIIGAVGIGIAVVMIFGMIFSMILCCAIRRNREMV

T1: tetraspanin protein CD9 on murine LL/2 cells (murine) (UniProt P40240)
T1 sequence (looked up): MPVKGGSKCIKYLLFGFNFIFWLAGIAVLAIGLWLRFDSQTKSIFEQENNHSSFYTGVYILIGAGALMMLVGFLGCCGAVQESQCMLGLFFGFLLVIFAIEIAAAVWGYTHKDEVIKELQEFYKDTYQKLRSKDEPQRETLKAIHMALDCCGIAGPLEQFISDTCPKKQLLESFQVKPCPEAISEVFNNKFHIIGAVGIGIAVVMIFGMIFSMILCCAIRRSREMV

B1: colligin/CBP2/Hsp47 on the surface of human carcinoma cells (protein, UniProt P50454 19-418, looked up)
chain: AEVKKPAAAAAPGTAEKLSPKAATLAERSAGLAFSLYQAMAKDQAVENILVSPVVVASSLGLVSLGGKATTASQAKAVLSAEQLRDEEVHAGLGELLRSLSNSTARNVTWKLGSRLYGPSSVSFADDFVRSSKQHYNCEHSKINFRDKRSALQSINEWAAQTTDGKLPEVTKDVERTDGALLVNAMFFKPHWDEKFHHKMVDNRGFMVTRSYTVGVMMMHRTGLYNYYDDEKEKLQIVEMPLAHKLSSLIILMPHHVEPLERLEKLLTKEQLKIWMGKMQKKAVAISLPKGVVEVTHDLQKHLAGLGLTEAIDKNKADLSRMSGKKDLYLASVFHATAFELDTDGNPFDQDIYGREELRSPKLFYADHPFIFLVRDTQSGSLLFIGRLVRPKGDKMRDEL
B2: colligin/Hsp47 on the surface of murine Lewis Lung Carcinoma (LL/2) cells (protein, UniProt P19324 18-417, looked up)
chain: AEVKKPLEAAAPGTAEKLSSKATTLAERSTGLAFSLYQAMAKDQAVENILLSPLVVASSLGLVSLGGKATTASQAKAVLSAEKLRDEEVHTGLGELLRSLSNSTARNVTWKLGSRLYGPSSVSFADDFVRSSKQHYNCEHSKINFRDKRSALQSINEWASQTTDGKLPEVTKDVERTDGALLVNAMFFKPHWDEKFHHKMVDNRGFMVTRSYTVGVTMMHRTGLYNYYDDEKEKLQMVEMPLAHKLSSLIILMPHHVEPLERLEKLLTKEQLKAWMGKMQKKAVAISLPKGVVEVTHDLQKHLAGLGLTEAIDKNKADLSRMSGKKDLYLASVFHATAFEWDTEGNPFDQDIYGREELRSPKLFYADHPFIFLVRDNQSGSLLFIGRLVRPKGDKMRDEL

Legend:
[1] = target: tetraspanin protein CD9 on human SCC cells (human) (UniProt P21926); assay: cross-linking (DSP or DTSSP) and co-immunoprecipitation from surface-labeled SCC cells
[2] = target: T1, tetraspanin protein CD9 on murine LL/2 cells (murine); assay: cross-linking (DSP or DTSSP) and co-immunoprecipitation from surface-labeled LL/2 cells

Row | Binder | binding [1] | binding [2]
1 | B1 | binds | –
2 | B2 | – | binds
